In publication PMC10163288:
The list shows a part of the results.

B1: il10ra_site1_normal_mot_HHH_b2_05813_000000266_0001_1_19_H_._HHH_b1_07748_0001_0000200010_0000002_0_af2pred_dldesign_0_af2pred (protein)
chain: SSSSDKEIWDLLVEIKKLIEANPELREELEAIAREVAELGRKKKLEEARKLLEQAKALVSKSSSS
B2: il10ra_site1_sap_25_mot_HHH_b1_05357_000000034_0001_23_39_H_._HHH_b2_07690_af2_0001_0000800032_0000001_0_0001 (protein)
chain: SSSSDELEEEAEELLEELRKITDPREFIEVAQEILQLVYRAQNPELLQELWRIVVEWARGSSSSS
B3: il10ra_site1_sap_9_mot_ems_3hM_3637_000000290_0001_1_19_H_._HHH_b1_05617_0001_0000100001_0000001_1_0001_af2pred_0001 (protein)
chain: SSSSSSDELEELIEKIEEALEEGDEELVLKLMVRLAHLANENNDEEATEFALRVAEELKSSSSSS
B4: il10ra_site1_sap_16_mot_HHH_b1_05704_af2_000000048_0001_1_18_H_._HHH_b1_04513_0001_0000400028_0000002_0_0001_af2pred_dldesign_0_af2pred (protein)
chain: SSSSDPVQAAQDYYLEALELAKEKGNKDLFDATYRALMHLAEQSKDAETLARAEELRRLASSSSS
B5: il10ra_site1_normal_mot_HHH_b1_08697_af2_000000298_0001_1_18_H_._HHH_b1_04234_0001_0000200008_0000001_1 (protein)
chain: SSSSSIEERALRFWERLLKQVLEKGDEEQARSAARALRVLAEIVGDEEAKEYVEEVEKELSSSSS
B6: il10ra_site1_normal_mot_HHH_b2_08186_000000021_0001_43_56_H_._HHH_b1_06709_af2_0001_0000300023_0000001_0 (protein)
chain: SSSSTEEEIEKLLEQLEEAIEEGDRELISELALRILRLIYELGDEELLQRLWKLLKEAAKSSSSS
B7: il10ra_site1_normal_mot_HHH_b1_05672_af2_000000246_0001_1_19_H_._HHH_b1_03268_0001_0000300041_0000002_0_af2pred_0001 (protein)
chain: SSSSSEERVVELIAEAIRFAQNGNPEEARELLEEAKEIAEELNDEELKRAIEIAERFVRNISSSS
B8: il10ra_site1_normal_mot_HHH_b2_06054_000000214_0001_39_53_H_._HHH_b1_06319_0001_0000300025_0000001_0 (protein)
chain: SSSSSEEREEVEELFEEAEELLKEGDSRRVAELIRRMAELARKGDDPEAVELVLKISHKLFSSSS
B9: il10ra_site1_sap_22_mot_HHH_b1_05326_000000242_0001_1_20_H_._HHH_b1_03085_af2_0001_0000400036_0000001_0_0001 (protein)
chain: SSSSSEEEISQLLYEALRLAINGNPEEAERVVQEALELAEELGDEELEEYARILLYFIRNSSSSS
B10: il10ra_site1_sap_10_mot_21555af6df39fbf105a98f94538c59b3_0001_af2_000000275_0001_17_30_H_._HHH_b2_01902_0001_0000400011_0000002_0_0001 (protein)
chain: SSSSSNEEAVKRMLRAAKHLDDPEYVRMALRFAEWLAKVANNPELEKLVEEVKEELEEKSSSSSS
B11: il10ra_site1_sap_23_mot_39a7b8d0c4c3fc04bafbda6ce6101d3a_0001_1_af2_000000014_0001_34_48_H_._f92699a6f451d299c9dcfce864df6914_0001_0001_0000500018_0000002_0_000 … (protein)
chain: SSSSSNVRELAVQASRLANEAGDPEAARRVLEIRIRYVQGKLSDEEARELIEEIIEELLSSSSSS
B12: il10ra_site1_normal_mot_1cde5897893f3d1588f92be3b001cdf2_0001_af2_000000130_0001_54_65_H_._HHH_b1_04024_af2_0001_0000300003_0000001_0_af2pred_0001 (protein)
chain: SSSSSEEERLERLEEELKKLEEEGDEEEAIRLLRRVVKLAAELNDDEILKRAAEIAKRLFSSSSS
B13: il10ra_site1_sap_22_mot_HHH_b1_02999_af2_000000239_0001_42_56_H_._d98b4791b6225abad9199bf72535a804_0001_0001_0000500023_0000001_0_0001 (protein)
chain: SSSSSEAREEAWRIIREILEALQRNDEELLKELLEELEELVRESGDPIFRFSLELLEKELSSSSS
B14: il10ra_site1_normal_mot_HHH_b2_01729_af2_000000109_0001_43_56_H_._HHH_b1_02898_af2_0001_0000800014_0000001_0_af2pred_0001 (protein)
chain: SSSSDEVEEIEKKLKELYEEGDVEEFAKLLRELFELAEELNDPELRELFERAAELAAELLSSSSS
B15: il10ra_site1_normal_mot_HHH_b1_05083_af2_000000148_0001_42_57_H_._HHH_b1_02547_af2_0001_0000100005_0000002_0_af2pred_0001 (protein)
chain: SSSSSEERRELLRLLRELAKLASEGDEEEVKELTREVEELAKELGDPHIAFIARAILKRISSSSS
B16: il10ra_site1_sap_25_mot_HHH_b2_08004_000000101_0001_1_17_H_._HHH_b1_08451_af2_0001_0000100003_0000001_0_0001 (protein)
chain: SLKELLEELTEEEGDPSRAVALVLAELMRRGIPPEEALRLVEEAAEALGDPQLRLVVRAALRLRN
B17: il10ra_site1_normal_mot_HHH_b1_06994_000000193_0001_40_55_H_._HHH_b2_05934_0001_0000100003_0000001_0 (protein)
chain: SSSSDQEEELARASVRLVEQALELNNEELFRRMLRAAIRAARLHGDEEVLERLEEILRELSSSSS
B18: il10ra_site1_sap_13_mot_HHH_b1_06348_000000162_0001_1_15_H_._HHH_b1_03219_0001_0000100010_0000001_0_0001_af2pred_0001 (protein)
chain: SSSSSDDEERLRLAIRFIRFLLEQGDKEAAERLIRAAQDIARRLGNEEIEEELEELEQLLSSSSS
B19: il10ra_site1_sap_25_mot_370675f9295878e0bd733637505c2f16_0001_1_af2_000000080_0001_18_35_H_._e6a9f0e24292654465a3c3805779fe2a_0001_1_0001_0000100003_0000001_0_0 … (protein)
chain: SSSSTLEFSVEFNLRVLEHLLELGDPERARHIVEAILKFVERARNEELLERLQKVEEEINSSSSS
B20: il10ra_site1_normal_mot_8756ee2cf497b5429c717dfc0c0bcfd6_0001_000000186_0001_1_13_H_._HHH_b2_02266_af2_0001_0000100001_0000003_0 (protein)
chain: SSSSSEEAHEAIRLLRKAAELHHEGNPEEAEEVVEKAEKLAEEANNDVLKHALKYLKRRLSSSSS
B21: il10ra_site1_sap_17_mot_HHH_b1_07527_000000076_0001_1_15_H_._HHH_b1_05500_af2_0001_0000600037_0000002_0_0001_af2pred_0001 (protein)
chain: SSSSDEEEVEEEVKRLLEEAKRISDPERRAEVLTRAFSLANRLNDDELKKLVKEVAKELTSSSSS
B22: il10ra_site1_normal_mot_HHH_b1_01247_af2_000000274_0001_1_19_H_._HHH_b2_04717_af2_0001_0000200008_0000002_0_af2pred_0001 (protein)
chain: SSSSDEEEHRLIELLQAIIRLLKEGDEEEAREVIKEAKELAEELGDELAKYQLEVLEKALRSSSS
B23: il10ra_site1_normal_mot_7d538683ae38ff56261eb02f12605454_0001_af2_000000062_0001_54_65_H_._HHH_b1_02690_0001_0000100003_0000001_0_af2pred_0001 (protein)
chain: SSSSDEEEEQIIEALQLIALLLARGNPEEAREVLKELEELVREIGDPELEAAVRTLRLALGSSSS
B24: il10ra_site1_sap_13_mot_7bf4b1c84582348b31e6ccb2b1d8e1ae_0001_1_af2_000000000_0001_1_14_H_._60091493e9a1e78a97af177fbdf76fb6_0001_1_0001_0000400020_0000001_0_00 … (protein)
chain: SSSSSSEEELRERVEELLEEAEQITDRRTLFKVLMEALRLAIRGNDPELLRRVWRLLKELSSSSS

These binders were tested against il10ra, Q13651 (assay: yeast display titration).

Apparent Kd, inactive:
B1 no binding seen
B2 no binding seen
B3 no binding seen
B4 no binding seen
B5 no binding seen
B6 no binding seen
B7 no binding seen
B8 no binding seen
B9 no binding seen
B10 no binding seen
B11 no binding seen
B12 no binding seen
B13 no binding seen
B14 no binding seen
B15 no binding seen
B16 no binding seen
B17 no binding seen
B18 no binding seen
B19 no binding seen
B20 no binding seen
B21 no binding seen
B22 no binding seen
B23 no binding seen
B24 no binding seen

Retrieved one by one from above (two):
Apparent Kd, inactive:
B7 no binding seen
B9 no binding seen
